The list is a part of this screen's results and no random one: it gathers tests that were run many times, whatever their T/C, doses with no T/C, and many T/C values between a quarter and a half above the control. Other doses and runs of a compound stand elsewhere. T/C: endpoint of the treated group in % of that of the vehicle group. Some entries give survivors of the animals treated and no T/C: the source holds a T/C of zero for them, seemingly a mark for toxic or unscored doses. Some survivor counts are full or nearly so, which does not show that the dose was tolerated: the source hardly ever lists a survival T/C far under the control, and the zero likely stands for such cases as well. Counts of survivors are from the toxicity check (mostly the fifth day) where no day follows; animals may have died later. Schedule codes are those of the source, read here as Q, the interval in days (D) or hours (H), X, the number of doses. Some molecules as drawn cover several salts, stereoisomers or complexes of the source; a dose is that of the sample tested.

Results on 19 compounds are retold here after PubChem BioAssay AID248 (DTP/NCI, 2004).

In the assay the test system is L1210 leukemia ip in BDF1 mice, survival T/C. As to the kind of experiment: NCI In Vivo Anticancer Drug Screen. Data for tumor model L1210 Leukemia (intraperitoneal) in B6D2F1 (BDF1) mice. The note with it: T/C endpoint: mean survival time, higher T/C = longer survival.
The mark [1] stands for this setting: dose: 200.0 mg/kg/injection, schedule: Q01DX001 (ip), vehicle: saline.
Where [2] appears, read: dose: 400.0 mg/kg/injection, schedule: Q01DX009 (ip), vehicle: saline.
Setting [3] is: dose: 400.0 mg/kg/injection, schedule: Q01DX009 (ip), vehicle: saline with Tween-80.
[4] abbreviates: dose: 100.0 mg/kg/injection, schedule: Q04DX003 (ip), vehicle: saline with Tween-80.
Setting [5] is: dose: 400.0 mg/kg/injection, schedule: Q04DX003 (ip), vehicle: saline with Tween-80.
The mark [6] stands for this setting: dose: 200.0 mg/kg/injection, schedule: Q01DX009 (ip), vehicle: saline.
[7] abbreviates: dose: 80.0 mg/kg/injection, schedule: Q01DX001 (ip), vehicle: saline.

As for `CC(=O)[O][Pb]([CH2]CC(C)C)([CH2]CC(C)C)[CH2]CC(C)C`, the survivor count reads like this: (dose: 3.12 mg/kg/injection, schedule: Q01DX009 (ip), vehicle: saline with Tween-80) 6 of 6; (dose: 3.12 mg/kg/injection, schedule: Q04DX002 (ip), vehicle: saline with Tween-80) 0 of 3; (dose: 4.6 mg/kg/injection, schedule: Q01DX009 (ip), vehicle: saline with Tween-80) 5 of 6; (dose: 6.25 mg/kg/injection, schedule: Q04DX002 (ip), vehicle: saline with Tween-80) 1 of 3; (dose: 7.0 mg/kg/injection, schedule: Q01DX009 (ip), vehicle: saline with Tween-80) 0 of 6; (dose: 10.0 mg/kg/injection, schedule: Q01DX009 (ip), vehicle: saline with Tween-80) 1 of 6. The survivor count (dose: 12.5 mg/kg/injection, schedule: Q04DX002 (ip), vehicle: saline with Tween-80) is 1 of 3; the survivor count (dose: 100.0 mg/kg/injection, schedule: Q04DX002 (ip), vehicle: saline) was 1 of 3; the survivor count (dose: 200.0 mg/kg/injection, schedule: Q04DX002 (ip), vehicle: saline) was 0 of 3; the survivor count (dose: 400.0 mg/kg/injection, schedule: Q04DX002 (ip), vehicle: saline) is reported as 2 of 3.
Consider `CCOC(=O)CCC(N)C(=O)OCC` (stereo unspecified), for which the survivor count under setting [1] is recorded as 4 of 4 and the survivor count under setting [2] was 2 of 6.
With `CN(C)c1ccc2nc(C(=O)O)c(=O)n(C)c2c1`, for the setting “dose: 400.0 mg/kg/injection, schedule: Q01DX001 (ip), vehicle: Klucel (hydroxypropylcellulose) (HPC)”, the survivor count is given as 3 of 3.
Take `Cc1ccc(Cl)cc1NC(=O)NCCCl`: the survivor count (dose: 400.0 mg/kg/injection, schedule: Q04DX003 (ip), vehicle: Klucel (hydroxypropylcellulose) (HPC)) is recorded as 3 of 6.
For the compound `Cc1cc(=O)oc2cc(OC(=O)Nc3cccc(Cl)c3Cl)ccc12`, the survivor count is listed as 5 of 6 (dose: 100.0 mg/kg/injection, schedule: Q01DX009 (ip), vehicle: Klucel (hydroxypropylcellulose) (HPC)); 6 of 6 (dose: 200.0 mg/kg/injection, schedule: Q01DX009 (ip), vehicle: Klucel (hydroxypropylcellulose) (HPC)); 6 of 6 (dose: 400.0 mg/kg/injection, schedule: Q01DX009 (ip), vehicle: Klucel (hydroxypropylcellulose) (HPC)).
On to `Nc1cc(N)cc([N+](=O)[O-])c1`, for which the survivor count (dose: 100.0 mg/kg/injection, schedule: Q04DX003 (ip), vehicle: saline) was 1 of 6; the survivor count (dose: 200.0 mg/kg/injection, schedule: Q04DX003 (ip), vehicle: saline) is 0 of 6; the survivor count (dose: 400.0 mg/kg/injection, schedule: Q04DX003 (ip), vehicle: saline) is on record as 0 of 6.
In the case of `CC(=O)Oc1ccc(Cl)cc1`, under setting [3], the survivor count is on record as 3 of 6.
Regarding `CC(=[N-])CC(C)=O.O=C(CC(=Nc1ccccc1)c1ccccc1)c1ccccc1.[Cu+]`, the survivor count runs as follows: under setting [4], 6 of 6; (dose: 200.0 mg/kg/injection, schedule: Q04DX003 (ip), vehicle: saline with Tween-80) 2 of 6; under setting [5], 0 of 6.
For the compound `O=C(Nc1cccc(Cl)c1)Nc1ccccc1Cl`, the survivor count was 6 of 6 (dose: 25.0 mg/kg/injection, schedule: Q04DX003 (ip), vehicle: saline with Tween-80) and 6 of 6 under setting [4].
Consider `CC1=C(C#N)C2(CCN(C)CC2)C(C#N)=C(C)N1`, for which the survivor count reads like this: (dose: 150.0 mg/kg/injection, schedule: Q01DX001 (ip), vehicle: saline) 0 of 6; (dose: 300.0 mg/kg/injection, schedule: Q01DX001 (ip), vehicle: carboxymethylcellulose (CMC)) 1 of 6; (dose: 300.0 mg/kg/injection, schedule: Q01DX001 (ip), vehicle: saline) 0 of 6.
For `CC(=O)NCC(=O)[O][Sn]([c]1ccc(C)cc1)([c]1ccc(C)cc1)[c]1ccc(C)cc1`, the survivor count is 1 of 3 (dose: 6.25 mg/kg/injection, schedule: Q01DX009 (ip), vehicle: saline with Tween-80); 0 of 3 (dose: 12.5 mg/kg/injection, schedule: Q01DX009 (ip), vehicle: saline with Tween-80); 0 of 3 (dose: 25.0 mg/kg/injection, schedule: Q01DX009 (ip), vehicle: saline with Tween-80); 0 of 3 (dose: 50.0 mg/kg/injection, schedule: Q01DX009 (ip), vehicle: saline); 0 of 3 (dose: 100.0 mg/kg/injection, schedule: Q01DX009 (ip), vehicle: saline); 0 of 3 under setting [6].
Turning to `O=C1C(=O)N(CNC(c2ccccc2)c2ccccc2)c2ccccc21`, the survivor count runs as follows: (dose: 100.0 mg/kg/injection, schedule: Q01DX009 (ip), vehicle: saline with Tween-80) 6 of 6; under setting [4], 6 of 6; (dose: 200.0 mg/kg/injection, schedule: Q01DX009 (ip), vehicle: saline with Tween-80) 6 of 6; under setting [5], 6 of 6.
For `CC1CN(Cl)C(=O)N(Cl)C1=O` (stereo unspecified), the survivor count is 1 of 6 (dose: 5.0 mg/kg/injection, schedule: Q01DX001 (ip), vehicle: saline) and 3 of 6 under setting [7].
On to `CCc1c(O)c2c(c(O)c1C(C)=O)C(=O)c1c(cc(O)c(C(=O)O)c1C(=O)O)C2=O`, for which the survivor count under setting [5] is given as 1 of 6.
In the case of `COc1ccc(COC(=O)Nc2cccc(Cl)c2C)cc1`, the survivor count under setting [3] is 6 of 6.
Consider `OCC1OC(n2ccc3cncnc32)C(O)C1O` (stereo unspecified), for which the survivor count is, setting by setting: under setting [7], 0 of 4; (dose: 100.0 mg/kg/injection, schedule: Q01DX001 (ip), vehicle: saline) 2 of 4; under setting [1], 0 of 4; (dose: 400.0 mg/kg/injection, schedule: Q01DX001 (ip), vehicle: saline) 0 of 4.
On to `CCC[CH2][Sn]([Cl])([Cl])[CH2]CCC.c1ccncc1`, for which the survivor count reads like this: (dose: 25.0 mg/kg/injection, schedule: Q01DX009 (ip), vehicle: Klucel (hydroxypropylcellulose) (HPC)) 0 of 3; (dose: 50.0 mg/kg/injection, schedule: Q01DX009 (ip), vehicle: Klucel (hydroxypropylcellulose) (HPC)) 0 of 3; (dose: 50.0 mg/kg/injection, schedule: Q04DX002 (ip), vehicle: Klucel (hydroxypropylcellulose) (HPC)) 3 of 3; (dose: 100.0 mg/kg/injection, schedule: Q04DX002 (ip), vehicle: Klucel (hydroxypropylcellulose) (HPC)) 0 of 3; (dose: 200.0 mg/kg/injection, schedule: Q04DX002 (ip), vehicle: Klucel (hydroxypropylcellulose) (HPC)) 1 of 3; (dose: 400.0 mg/kg/injection, schedule: Q04DX002 (ip), vehicle: Klucel (hydroxypropylcellulose) (HPC)) 1 of 3.
For `C1CCCC(=[N+]2CCCC2)CCC1`, the survivor count is, setting by setting: under setting [6], 0 of 6; under setting [2], 0 of 6.
Take `OC(OC/C(I)=C(/I)COC(O)C(Cl)(Cl)Cl)C(Cl)(Cl)Cl` (stereo unspecified): under “dose: 400.0 mg/kg/injection, schedule: Q01DX009 (ip), vehicle: other”, the survivor count is recorded as 0 of 6.
